Measurements published in PubChem BioAssay AID504467 (National Center for Advancing Translational Sciences (NCATS), 2011).
Hit rate of the full screen: of about 330,000 compounds, about 7,700 (2.3%) were called active. Inconclusive means that the source gave no clear call. Such entries were picked first, then a sample of the others. The call rests on the fitted dose curve; in most records, active means well fitted inhibition curve with a large enough effect; inconclusive means small, poorly fitted or top-dose-only effect, or effect the other way; inactive means flat fitted curve, though single readings scatter. A potency beside an inconclusive call is a rough fit, not a confirmed value.
Potency means the concentration at half of the fitted maximal effect.

Assay: qHTS screen for small molecules that inhibit ELG1-dependent DNA repair in human embryonic kidney (HEK293T) cells expressing luciferase-tagged ELG1; further: nearly all actives have a fitted effect of over 55% in size
Settings: HEK293T ELG1-luciferase reporter, luminescence, 16 h, DNA damage induced by 5-fluorouridine; series mostly up to 46.1 µM
Outline: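 DMSO vehicle served as the neutral condition. Each well held 2,000 cells given 5-fluorouridine plus compound; after 16 hr at 37 °C/5% CO2, ONE-Glo was added and luciferase measured 30 min later.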
In the case of `CCOC(=O)N1CCN(CC(=O)Nc2sc(CC)cc2C(=O)c2ccc(OC)cc2)CC1`, the Potency is reported as inconclusive: 16.4 µM [inhibitor, partial curve]. With `Cc1ccc(Cn2ncc3c(NN)ncnc32)cc1` the Potency was inconclusive: 29.1 µM [inhibitor, single point]. For `Cc1nc2ccc(C(=O)OCc3ccccc3Br)cc2nc1C`, the Potency was inconclusive: 18.4 µM [activator, partial curve]. For `COc1cc(/C=C2\SC(N3CCc4ccccc4C3)=NC2=O)cc(OC)c1OC`, the Potency was active: 18.4 µM. For `CCOc1ccc(/C=N/NC(=S)NC2CC3CC2C2C=CCC32)cc1` (stereo not given), the Potency was inconclusive: 18.3 µM [inhibitor, partial curve, poor fit]. With `O=C(CSc1nc(-c2ccccc2)cs1)Nc1ccccc1[N+](=O)[O-]` the Potency was “inactive”. In the case of `CN(Cc1ccc(C(C)(C)C)cc1)C(=O)Cc1ccc(S(=O)(=O)N2CCOCC2)s1`, the Potency is reported as inconclusive: 29.1 µM [inhibitor, single point]. For `Oc1ccc(Br)cc1-c1nc2cnccn2c1NC1CCCC1`, the Potency was active: 23.1 µM. For `CCCOc1ccc(C(=O)NCc2ccco2)cc1`, the Potency was inconclusive: 16.4 µM [activator, single point]. In the case of `Cc1ncc(CO)c(/C=N/NC(=O)c2cc(O)c(O)c(O)c2)c1O`, the Potency is reported as “inactive”. In the case of `CC(=O)N1CCN(C(=O)C(Cc2ccccc2)NC(=O)c2ccccc2)CC1` (stereo not given), the Potency is reported as “inactive”. In the case of `Cc1cc(-c2nnc3sc(-c4ccc(Cl)cc4Cl)nn23)n[nH]1`, the Potency is reported as “inactive”. With `COc1ccc(NC2CCCN(C(=O)c3c(C)noc3C)C2)cc1` (stereo not given) the Potency was “inactive”. With `C=CCn1c(O)c(N=NC(=O)c2ccc3c(c2)OCO3)c2ccccc21` the Potency was inconclusive: 23.1 µM [activator, partial curve, poor fit]. In the case of `O=C(NCc1ccccc1Cl)C1CCN(C(=O)c2sccc2-n2cccc2)CC1`, the Potency is reported as inconclusive: 25.9 µM [inhibitor, partial curve, poor fit]. With `COc1ccc(-c2noc(C3CCCN(C(=O)c4ccccc4OC)C3)n2)cc1OC` (stereo not given) the Potency was inconclusive: 29.1 µM [inhibitor, single point]. With `COCc1cc(CNC(=O)C2CCC(=O)N(Cc3ccccc3OC)C2)[nH]n1` (stereo not given) the Potency was inconclusive: 23.1 µM [activator, partial curve, poor fit]. For `COc1ccc(-n2cnc3ccccc32)cc1`, the Potency was active: 8.2 µM. For `Cc1c2c(=O)n(-c3nc4ccccc4s3)nc-2cc(O)n1Cc1ccccc1`, the Potency was inconclusive: 13 µM [activator, partial curve]. With `Cc1ccc(C)c(-n2c(CNC(=O)c3ccco3)nnc2SCC(=O)Nc2nnc(C)s2)c1` the Potency was inconclusive: 20.6 µM [activator, partial curve, poor fit].
